The results are deposited in PubChem (AID1053133; Broad Institute, 2014).

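Vaccinia-infected cells with a two-color viral stage reporter; Venus fluorescence read on a plate reader; the cell line is not named here; timing not stated here.
The test concentration is not given here.
Percent change in Venus reporter signal; lower (more negative) values mean stronger inhibition of that viral stage.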

Values are in %.
How 0% and 100% were set is not given here.
Common to all entries: measured here: Venus reporter, other viral stage.
This is a side read-out of the assay, for part of the compounds, not drawn at random.

Compound	activity change (Venus) (%)
Cc1ccc(S(=O)(=O)Nc2ccc3c(c2)CC(=O)N([C@H](C)CO)C[C@H](C)[C@H](CN(C)Cc2ccc(Oc4ccccc4)cc2)O3)cc1	-53.88
Cc1noc(C)c1S(=O)(=O)Nc1ccc2c(c1)C(=O)N([C@@H](C)CO)C[C@H](C)[C@@H](CN(C)Cc1ccc(C(F)(F)F)cc1)OCCCC[C@@H](C)O2	-75.81
C[C@@H]1CCCCO[C@@H](CN(C)S(=O)(=O)c2cccs2)[C@H](C)CN([C@H](C)CO)C(=O)c2cc(NS(=O)(=O)c3ccccc3)ccc2O1	-45.42
OC[C@H]1[C@H](c2ccc(C#CC3CCCC3)cc2)[C@H]2CN(CCC(F)(F)F)CCCCN21	-58.1
C/C=C/c1ccc2c(c1)O[C@H](CN(C)S(=O)(=O)c1ccc(F)cc1)[C@H](C)CN([C@@H](C)CO)S2(=O)=O	-31.98
C[C@H](CO)N1C[C@H](C)[C@@H](CN(C)S(=O)(=O)c2cccs2)Oc2ncc(/C=C/c3ccccc3)cc2C1=O	-33.36
C[C@H](CO)N1C[C@H](C)[C@H](CN(C)Cc2ccc(Oc3ccccc3)cc2)Oc2ccc(NC(=O)NC3CCCCC3)cc2C1=O	-14.36
CO[C@H]1O[C@H](CO)[C@@H](OC(=O)Nc2cccc(F)c2)[C@H](OC(=O)Nc2ccccc2)[C@H]1OC(=O)Nc1ccccc1	-34
COc1ccc(NC(=O)Nc2ccc3c(c2)C(=O)N([C@H](C)CO)C[C@H](C)[C@H](CN(C)Cc2ccc(Cl)c(Cl)c2)O3)cc1	-30.37
N#Cc1cccc(-c2ccc3c(c2)[C@H]2[C@H](CCN2S(=O)(=O)c2ccccc2)[C@H](CO)N3)c1	-37.02
COc1ccc(CN(C)C[C@H]2OCCCC[C@H](C)Oc3ccc(NC(=O)NC4CCCCC4)cc3C(=O)N([C@@H](C)CO)C[C@H]2C)cc1	-36.87
CO[C@@H]1CN(C)C(=O)c2cc(NC(=O)Nc3ccccc3F)ccc2OC[C@H](C)N(CC2CC2)C[C@H]1C	-34.6
COc1ccc(S(=O)(=O)Nc2ccc3c(c2)C(=O)N([C@@H](C)CO)C[C@@H](C)[C@H](CN(C)Cc2ccc(C(F)(F)F)cc2)OCCCC[C@@H](C)O3)cc1	-84.23
C[C@@H]1CN([C@@H](C)CO)S(=O)(=O)c2ccc(C#Cc3cccc(F)c3)cc2O[C@H]1CN(C)S(=O)(=O)c1cn(C)cn1	-63.56
Cc1ccc(S(=O)(=O)N[C@@H]2C=C[C@@H](CC(=O)N3CCC(Cc4ccccc4)CC3)O[C@@H]2CO)cc1	-29.28
CC(C)CC#Cc1cnc2c(c1)C(=O)N([C@H](C)CO)C[C@H](C)[C@@H](CN(C)Cc1ccccc1)O2	-31.18
Cc1ccc(S(=O)(=O)N[C@H]2CC[C@H](CCn3cc(-c4cccc(F)c4)nn3)O[C@@H]2CO)cc1	-37.51
CC(C)C#Cc1ccc([C@H]2[C@@H](CO)N3C(=O)CN(S(=O)(=O)c4ccccc4)C[C@@H]23)cc1	-25.67
COc1ccc2c3c([nH]c2c1)[C@H](CO)N(C(=O)Nc1ccc(F)cc1)CC31CCN(C(=O)Cc2ccccc2)CC1	-24.79
C[C@@H]1CN([C@H](C)CO)C(=O)c2cc(NS(=O)(=O)c3ccc(Cl)cc3)ccc2O[C@@H](C)CCCCO[C@H]1CN(C)Cc1ccc(Cl)c(Cl)c1	-46.51
O=C(C[C@@H]1CC[C@H]2[C@@H](COC[C@H](O)CN2Cc2ccc(Cl)cc2)O1)Nc1nccs1	-19.26
C[C@H](CO)N1C[C@H](C)[C@@H](CN(C)S(=O)(=O)c2ccc(F)cc2)Oc2ccc(NC(=O)Nc3ccc(C(F)(F)F)cc3)cc2C1=O	-30.55
C/C=C/c1ccc2c(c1)O[C@@H](CN(C)C(=O)Nc1ccc(C(F)(F)F)cc1)[C@@H](C)CN([C@H](C)CO)S2(=O)=O	-72.15
C[C@H]1CCCCO[C@H](CN(C)C(=O)Cc2ccccc2)[C@@H](C)CN([C@@H](C)CO)C(=O)c2cc(NC(=O)c3ccccc3)ccc2O1	-45.58
C[C@@H]1CN([C@@H](C)CO)C(=O)Cc2cc(NC(=O)CCN3CCOCC3)ccc2O[C@@H]1CN(C)Cc1ccc(Oc2ccccc2)cc1	-39.31
C[C@@H]1CN([C@@H](C)CO)C(=O)c2cc(/C=C/c3ccccc3)cnc2O[C@H]1CN(C)C(=O)c1ccc(F)cc1	-34.79
COc1ccc(-c2ccc3c(c2)O[C@@H](CN(C)C(=O)c2ccccc2F)[C@@H](C)CN([C@@H](C)CO)S3(=O)=O)cc1	-43.09
C[C@@H]1CN([C@@H](C)CO)C(=O)c2c(c3ccccc3n2C)-c2ccccc2CO[C@H]1CN(C)Cc1cccc2c1OCCCO2	-61.6
C[C@H]1CN([C@@H](C)CO)C(=O)Cc2cc(NC(=O)Nc3ccc(C(F)(F)F)cc3)ccc2O[C@H]1CN(C)Cc1ccncc1	-59.26
COc1cccc(C#Cc2ccc([C@H]3[C@H]4CN(C(C)=O)CC(=O)N4[C@H]3CO)cc2)c1	-31.73
C[C@H]1CN([C@@H](C)CO)S(=O)(=O)c2ccc(C#CC3CC3)cc2O[C@@H]1CN(C)Cc1cccc(F)c1	-34.53
CN(C)C(=O)c1cccc(-c2cccc(-c3nc(C(=O)NC4CCCCC4)cc4c3[C@@H](CCO)N([S@](=O)C(C)(C)C)C4)c2)c1	-50.62
Cc1ccc(S(=O)(=O)N(C)C[C@@H]2Oc3ccc(NC(=O)Nc4ccccc4)cc3CC(=O)N([C@H](C)CO)C[C@@H]2C)cc1	-41.64
C[C@H](CO)N1C[C@H](C)[C@@H](CN(C)Cc2ccc(Cl)c(Cl)c2)OCCCC[C@H](C)Oc2ccc(NS(=O)(=O)c3cccs3)cc2C1=O	-74.53
O=C(Nc1ccc(F)cc1)N[C@@H]1C[C@@H]2O[C@@H](CO)CC[C@@H]2O[C@@H]1CCc1ccc(-c2ccccc2)cc1	-39.84
O=C(Cc1ccccc1)N1CCCCN2[C@@H](CO)[C@H](c3ccc(C#Cc4ccccc4)cc3)[C@@H]2C1	-38.53
C[C@@H]1CN([C@H](C)CO)C(=O)c2cc(NS(=O)(=O)c3ccc(F)cc3)ccc2O[C@@H](C)CCCCO[C@H]1CN(C)CC1CCCCC1	-31.23
CCCC#Cc1ccc([C@H]2[C@@H](CO)N3C(=O)CN(S(=O)(=O)c4ccccc4C)C[C@@H]23)cc1	-30.04
C[C@H]1CN([C@@H](C)CO)S(=O)(=O)c2ccc(C#Cc3cccc(F)c3)cc2O[C@@H]1CN(C)C(=O)CN1CCOCC1	-33.78
N#C[C@@H]1[C@H](c2ccc(C#Cc3ccccc3F)cc2)[C@@H](CO)N1C(=O)C1CCC1	-34.67
Cc1ccccc1S(=O)(=O)N1CCCCN2[C@H](CO)[C@H](c3ccc(-c4cccnc4)cc3)[C@@H]2C1	-30.47
CC(C)CC#Cc1ccc2c(c1)O[C@@H](CN(C)Cc1ccccn1)[C@@H](C)CN([C@@H](C)CO)S2(=O)=O	-34.19
Cc1ccc(S(=O)(=O)N(C)C[C@@H]2Oc3ccc(NC(=O)C4CCCCC4)cc3C(=O)N([C@@H](C)CO)C[C@H]2C)cc1	-26.52
COc1ccccc1NC(=O)N1CCCCN2[C@H](C1)[C@H](c1ccc(C#CC3CC3)cc1)[C@@H]2CO	-35.44
C[C@H]1CN([C@@H](C)CO)S(=O)(=O)c2ccc(-c3ccc(C#N)cc3)cc2O[C@H]1CN(C)C(=O)Nc1cc(F)ccc1F	-29.2
COc1ccc(NC(=O)Nc2ccc3c(c2)C(=O)N([C@H](C)CO)C[C@@H](C)[C@@H](CN(C)Cc2ccccc2)OCCCC[C@H](C)O3)cc1	-49.44
O=C(C[C@@H]1C=C[C@H](NC(=O)Nc2cc(F)ccc2F)[C@H](CO)O1)Nc1ccc(-c2ccccc2)cc1	-30.01
Cc1cccc(-c2ccc([C@H]3[C@@H](CO)N4CCCCN(CCC(F)(F)F)C[C@H]34)cc2)c1	-55.13